# Measured values as given in article PMC3514286.
# Amino acid sequences for entries named in this document (tags omitted). Residues count along the entry.
# UniProt P0A6F9: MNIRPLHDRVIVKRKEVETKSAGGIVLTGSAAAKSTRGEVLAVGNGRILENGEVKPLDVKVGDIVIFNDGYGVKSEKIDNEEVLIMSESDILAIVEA
# UniProt P10809, residues 27-573: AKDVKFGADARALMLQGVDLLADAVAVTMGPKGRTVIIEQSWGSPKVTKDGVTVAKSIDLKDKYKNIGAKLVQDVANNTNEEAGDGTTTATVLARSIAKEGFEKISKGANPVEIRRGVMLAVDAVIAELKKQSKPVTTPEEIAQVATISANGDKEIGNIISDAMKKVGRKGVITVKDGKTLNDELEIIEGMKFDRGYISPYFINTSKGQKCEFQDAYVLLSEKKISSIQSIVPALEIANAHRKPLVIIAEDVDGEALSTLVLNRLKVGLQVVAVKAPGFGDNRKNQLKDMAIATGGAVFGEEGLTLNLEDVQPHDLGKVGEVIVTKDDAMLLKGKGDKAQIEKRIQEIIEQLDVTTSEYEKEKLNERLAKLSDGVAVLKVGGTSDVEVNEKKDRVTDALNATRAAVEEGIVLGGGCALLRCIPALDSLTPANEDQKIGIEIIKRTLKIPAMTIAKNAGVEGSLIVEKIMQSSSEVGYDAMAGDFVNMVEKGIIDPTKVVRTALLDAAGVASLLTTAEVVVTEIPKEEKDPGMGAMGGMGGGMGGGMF
# No constants are given. Whether binding was seen depends on the method and setting.
# Biological target: GroES (E. coli) (UniProt P0A6F9)
# Test: SPR; ProteOn XPR36; GroES or mHsp10 immobilised by amine coupling on a GLC chip; six concentrations of each mHsp60 variant injected; 20 mM Na-HEPES pH 7.5, 100 mM KCl, 10 mM MgCl2, 0.005% Tween, 2 mM ATP; apparent constants from equilibrium analysis; both purified
substance,measurement,value
"human mitochondrial Hsp60, wild type (from UniProt P10809 27-573)",binding,no binding (tested: 10 µM)
